These are yes or no findings as the source states them, for the method shown. Some results given as binding are weak or reduced against the parent protein; the word gives no strength.
How the values were obtained:
[1] = molecular target: mouse ATP6V1B2 on the surface of senescent mouse lung fibroblasts (CCL-206) (mouse) (UniProt P62814); experiment: FACS, non-permeabilized senescent CCL-206 cells, antibody at 10 ug/ml
[2] = molecular target: human ATP6V1B2 on the surface of senescent human cells (IMR-90 lung fibroblasts, IPF lung fibroblasts, A549 lung adenocarcinoma cells) (human) (UniProt P21281); experiment: FACS, non-permeabilized senescent IMR-90 cells, antibody at 10 ug/ml
[3] = molecular target: mouse ATP6V1B2 on the surface of senescent mouse lung fibroblasts (CCL-206) (mouse) (UniProt P62814); experiment: FACS, senescent CCL-206 cells, compared with commercial antibodies
[4] = molecular target: human ATP6V1B2 on the surface of senescent human cells (IMR-90 lung fibroblasts, IPF lung fibroblasts, A549 lung adenocarcinoma cells) (human) (UniProt P21281); experiment: FACS, senescent IMR-90 cells, compared with commercial antibodies

By UniProt entry, the sequences of proteins in these tests, tags left out.
UniProt P62814: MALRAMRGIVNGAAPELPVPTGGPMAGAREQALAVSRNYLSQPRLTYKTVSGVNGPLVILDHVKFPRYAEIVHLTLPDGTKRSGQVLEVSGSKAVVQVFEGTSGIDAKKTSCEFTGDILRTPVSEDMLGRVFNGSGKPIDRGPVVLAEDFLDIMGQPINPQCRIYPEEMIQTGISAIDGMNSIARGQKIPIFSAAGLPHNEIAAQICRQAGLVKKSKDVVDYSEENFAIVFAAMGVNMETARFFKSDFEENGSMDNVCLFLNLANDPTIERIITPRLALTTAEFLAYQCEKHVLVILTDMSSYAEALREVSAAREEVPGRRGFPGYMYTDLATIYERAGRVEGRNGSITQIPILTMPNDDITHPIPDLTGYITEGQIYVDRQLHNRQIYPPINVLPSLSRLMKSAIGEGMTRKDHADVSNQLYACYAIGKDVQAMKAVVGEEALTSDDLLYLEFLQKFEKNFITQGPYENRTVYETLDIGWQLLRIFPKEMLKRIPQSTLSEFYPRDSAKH
UniProt P21281: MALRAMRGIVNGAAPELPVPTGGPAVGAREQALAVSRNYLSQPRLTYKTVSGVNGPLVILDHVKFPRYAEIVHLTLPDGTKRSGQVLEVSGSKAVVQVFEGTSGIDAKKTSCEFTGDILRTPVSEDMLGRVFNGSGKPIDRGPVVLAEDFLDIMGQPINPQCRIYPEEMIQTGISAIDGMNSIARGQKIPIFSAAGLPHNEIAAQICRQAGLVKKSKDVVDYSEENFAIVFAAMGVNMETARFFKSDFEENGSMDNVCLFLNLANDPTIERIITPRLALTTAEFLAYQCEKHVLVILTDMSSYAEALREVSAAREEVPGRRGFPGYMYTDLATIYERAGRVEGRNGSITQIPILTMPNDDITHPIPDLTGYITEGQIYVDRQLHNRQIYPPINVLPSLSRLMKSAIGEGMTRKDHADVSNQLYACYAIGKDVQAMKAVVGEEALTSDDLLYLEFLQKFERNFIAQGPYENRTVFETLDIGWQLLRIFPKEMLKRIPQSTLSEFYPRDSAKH

binding [1]: binds
binding [2]: binds
binding [3]: binds
binding [4]: binds
B1: anti-ATP6V1B2 antibody 4G06 (antibody, V domains shown)
VH: QVQLQQSGAELVKPGASVKVSCKASGYTFTNYWMHWVRQRPGQGLEWIGRIDPSDSDTNYTQKFKGKATLTVDKSSNTAYMQVSSLTSEDFAVYYCAELGTFDYWGQGTSLTVSV
VL: DIVMTQTPLSLPVSLGDQASIYCRSSRSLVHSNGKTYLHWYQQKPGQSPKLLIYKVSNRFSGVPDRFSGSGSGTDFTLKISRVEAEDLGVYFCSQSTHVPWTFGGGTKLEIK
